Reference: the supplement of paper PMC10849652
This is one part of the list.

Chains of the proteins cited; added tags and fusions are not shown. Lines headed by an entry give the natural chain unless they say otherwise; changes in a name come on top.
UniProt Q93034, whole entry, looked up: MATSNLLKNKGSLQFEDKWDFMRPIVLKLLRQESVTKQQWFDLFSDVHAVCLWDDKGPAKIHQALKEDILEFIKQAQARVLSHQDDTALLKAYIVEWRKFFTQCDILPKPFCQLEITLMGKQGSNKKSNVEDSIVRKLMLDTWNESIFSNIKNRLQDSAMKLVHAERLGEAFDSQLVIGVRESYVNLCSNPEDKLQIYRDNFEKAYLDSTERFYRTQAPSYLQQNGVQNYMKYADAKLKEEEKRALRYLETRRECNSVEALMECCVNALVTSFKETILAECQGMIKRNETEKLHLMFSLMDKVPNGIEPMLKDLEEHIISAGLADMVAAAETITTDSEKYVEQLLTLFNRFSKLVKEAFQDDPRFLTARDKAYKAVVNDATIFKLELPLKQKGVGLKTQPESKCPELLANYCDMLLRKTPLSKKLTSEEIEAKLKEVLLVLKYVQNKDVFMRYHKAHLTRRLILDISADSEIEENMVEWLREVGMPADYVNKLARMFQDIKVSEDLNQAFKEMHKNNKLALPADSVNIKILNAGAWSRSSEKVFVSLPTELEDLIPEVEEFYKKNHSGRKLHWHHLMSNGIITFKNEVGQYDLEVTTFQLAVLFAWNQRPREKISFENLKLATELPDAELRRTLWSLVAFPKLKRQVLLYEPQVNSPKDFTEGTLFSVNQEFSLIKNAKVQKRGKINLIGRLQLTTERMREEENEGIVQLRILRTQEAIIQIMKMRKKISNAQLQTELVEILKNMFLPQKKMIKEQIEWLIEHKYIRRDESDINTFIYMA
UniProt P00387: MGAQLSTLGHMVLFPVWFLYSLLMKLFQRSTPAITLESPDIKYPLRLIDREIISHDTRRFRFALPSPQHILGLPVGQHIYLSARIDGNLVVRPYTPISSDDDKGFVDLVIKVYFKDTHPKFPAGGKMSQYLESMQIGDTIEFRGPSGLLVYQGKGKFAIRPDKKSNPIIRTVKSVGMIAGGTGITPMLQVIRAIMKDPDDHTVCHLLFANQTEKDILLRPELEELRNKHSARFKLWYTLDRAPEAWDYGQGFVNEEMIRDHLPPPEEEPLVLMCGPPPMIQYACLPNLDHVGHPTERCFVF
UniProt Q13616, whole entry, looked up: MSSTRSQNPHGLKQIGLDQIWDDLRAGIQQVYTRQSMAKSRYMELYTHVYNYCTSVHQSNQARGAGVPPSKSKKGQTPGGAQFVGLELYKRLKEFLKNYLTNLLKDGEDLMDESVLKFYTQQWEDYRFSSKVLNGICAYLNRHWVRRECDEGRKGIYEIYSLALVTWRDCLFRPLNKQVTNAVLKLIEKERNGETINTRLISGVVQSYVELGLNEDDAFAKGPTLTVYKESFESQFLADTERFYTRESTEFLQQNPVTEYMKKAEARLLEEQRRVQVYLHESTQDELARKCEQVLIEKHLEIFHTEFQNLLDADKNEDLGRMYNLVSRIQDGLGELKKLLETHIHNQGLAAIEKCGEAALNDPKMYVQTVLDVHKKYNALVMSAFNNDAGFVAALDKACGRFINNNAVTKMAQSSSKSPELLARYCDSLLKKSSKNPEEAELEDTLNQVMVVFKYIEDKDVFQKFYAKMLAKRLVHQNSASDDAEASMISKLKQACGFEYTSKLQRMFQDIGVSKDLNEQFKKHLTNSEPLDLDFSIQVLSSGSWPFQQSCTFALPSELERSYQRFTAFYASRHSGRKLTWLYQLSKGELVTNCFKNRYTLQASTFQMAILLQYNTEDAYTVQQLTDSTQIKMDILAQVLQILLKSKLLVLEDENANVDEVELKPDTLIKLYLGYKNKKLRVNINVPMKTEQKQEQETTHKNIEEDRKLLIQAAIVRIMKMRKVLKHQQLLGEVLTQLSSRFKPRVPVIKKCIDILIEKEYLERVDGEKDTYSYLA
UniProt Q9H773: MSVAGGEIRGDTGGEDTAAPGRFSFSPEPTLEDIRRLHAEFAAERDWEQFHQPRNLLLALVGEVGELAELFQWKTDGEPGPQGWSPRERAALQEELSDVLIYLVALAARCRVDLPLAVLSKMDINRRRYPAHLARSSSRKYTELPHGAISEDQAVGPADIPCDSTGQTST
UniProt Q9NRF8: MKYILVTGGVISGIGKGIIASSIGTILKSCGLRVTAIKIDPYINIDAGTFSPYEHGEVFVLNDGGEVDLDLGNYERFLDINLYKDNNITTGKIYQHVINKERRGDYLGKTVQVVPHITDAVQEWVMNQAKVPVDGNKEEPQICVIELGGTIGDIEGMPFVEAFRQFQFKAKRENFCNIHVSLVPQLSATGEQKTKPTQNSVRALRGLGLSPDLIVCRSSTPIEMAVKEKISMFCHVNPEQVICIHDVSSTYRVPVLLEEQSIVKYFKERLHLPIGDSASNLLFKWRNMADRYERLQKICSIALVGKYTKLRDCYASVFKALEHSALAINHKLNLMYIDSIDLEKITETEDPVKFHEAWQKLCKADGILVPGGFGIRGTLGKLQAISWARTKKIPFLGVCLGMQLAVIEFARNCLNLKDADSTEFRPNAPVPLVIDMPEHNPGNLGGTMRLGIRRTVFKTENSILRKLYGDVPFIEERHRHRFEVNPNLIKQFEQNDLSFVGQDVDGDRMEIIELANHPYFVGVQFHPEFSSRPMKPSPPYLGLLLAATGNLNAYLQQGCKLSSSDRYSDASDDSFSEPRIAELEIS
UniProt Q9NWV4: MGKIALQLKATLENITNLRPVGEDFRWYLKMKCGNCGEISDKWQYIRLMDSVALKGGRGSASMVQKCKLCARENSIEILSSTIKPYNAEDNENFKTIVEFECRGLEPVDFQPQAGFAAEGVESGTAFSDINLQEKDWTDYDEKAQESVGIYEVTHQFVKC
UniProt P11182, whole entry, looked up: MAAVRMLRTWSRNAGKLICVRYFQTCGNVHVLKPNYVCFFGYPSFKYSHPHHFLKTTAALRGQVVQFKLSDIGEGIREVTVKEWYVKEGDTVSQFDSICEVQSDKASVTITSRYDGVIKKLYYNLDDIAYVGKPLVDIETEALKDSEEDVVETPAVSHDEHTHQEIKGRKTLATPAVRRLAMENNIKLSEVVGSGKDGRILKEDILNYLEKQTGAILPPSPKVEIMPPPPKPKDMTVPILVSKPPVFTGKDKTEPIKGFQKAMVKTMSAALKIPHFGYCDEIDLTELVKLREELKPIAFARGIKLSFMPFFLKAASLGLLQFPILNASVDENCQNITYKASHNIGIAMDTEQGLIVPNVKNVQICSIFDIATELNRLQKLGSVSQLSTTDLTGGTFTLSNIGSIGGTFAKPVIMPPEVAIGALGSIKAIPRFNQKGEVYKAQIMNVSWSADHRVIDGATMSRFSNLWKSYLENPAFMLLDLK
UniProt P21291: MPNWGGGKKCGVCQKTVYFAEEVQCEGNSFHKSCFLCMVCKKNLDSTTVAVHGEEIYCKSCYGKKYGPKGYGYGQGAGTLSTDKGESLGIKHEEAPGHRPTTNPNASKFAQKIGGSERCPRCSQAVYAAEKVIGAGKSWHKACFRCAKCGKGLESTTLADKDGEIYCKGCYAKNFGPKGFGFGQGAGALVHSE
UniProt Q9NXE8: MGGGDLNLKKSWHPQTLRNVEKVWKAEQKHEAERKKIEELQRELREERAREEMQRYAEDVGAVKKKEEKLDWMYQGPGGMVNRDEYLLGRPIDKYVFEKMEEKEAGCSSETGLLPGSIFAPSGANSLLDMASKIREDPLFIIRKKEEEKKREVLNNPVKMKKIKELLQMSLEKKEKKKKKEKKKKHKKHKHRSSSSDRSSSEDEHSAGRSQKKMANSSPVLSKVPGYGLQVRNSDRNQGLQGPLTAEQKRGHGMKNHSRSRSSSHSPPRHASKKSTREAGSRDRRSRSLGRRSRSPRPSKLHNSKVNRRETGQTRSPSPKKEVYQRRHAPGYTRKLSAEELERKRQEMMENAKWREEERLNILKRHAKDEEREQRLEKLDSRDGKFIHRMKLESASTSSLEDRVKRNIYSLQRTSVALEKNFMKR
UniProt Q13561, whole entry, looked up: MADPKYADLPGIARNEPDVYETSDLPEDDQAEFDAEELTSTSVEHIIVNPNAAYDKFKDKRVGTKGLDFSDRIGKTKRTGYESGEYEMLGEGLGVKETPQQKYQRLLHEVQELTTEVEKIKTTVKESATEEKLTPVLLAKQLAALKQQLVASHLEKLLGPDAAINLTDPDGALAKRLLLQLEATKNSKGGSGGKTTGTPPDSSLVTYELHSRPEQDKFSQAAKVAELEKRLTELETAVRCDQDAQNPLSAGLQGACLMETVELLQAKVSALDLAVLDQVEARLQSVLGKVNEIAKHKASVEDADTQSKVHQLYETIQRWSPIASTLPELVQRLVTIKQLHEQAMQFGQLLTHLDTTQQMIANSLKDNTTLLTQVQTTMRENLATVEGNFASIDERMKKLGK
UniProt O60716: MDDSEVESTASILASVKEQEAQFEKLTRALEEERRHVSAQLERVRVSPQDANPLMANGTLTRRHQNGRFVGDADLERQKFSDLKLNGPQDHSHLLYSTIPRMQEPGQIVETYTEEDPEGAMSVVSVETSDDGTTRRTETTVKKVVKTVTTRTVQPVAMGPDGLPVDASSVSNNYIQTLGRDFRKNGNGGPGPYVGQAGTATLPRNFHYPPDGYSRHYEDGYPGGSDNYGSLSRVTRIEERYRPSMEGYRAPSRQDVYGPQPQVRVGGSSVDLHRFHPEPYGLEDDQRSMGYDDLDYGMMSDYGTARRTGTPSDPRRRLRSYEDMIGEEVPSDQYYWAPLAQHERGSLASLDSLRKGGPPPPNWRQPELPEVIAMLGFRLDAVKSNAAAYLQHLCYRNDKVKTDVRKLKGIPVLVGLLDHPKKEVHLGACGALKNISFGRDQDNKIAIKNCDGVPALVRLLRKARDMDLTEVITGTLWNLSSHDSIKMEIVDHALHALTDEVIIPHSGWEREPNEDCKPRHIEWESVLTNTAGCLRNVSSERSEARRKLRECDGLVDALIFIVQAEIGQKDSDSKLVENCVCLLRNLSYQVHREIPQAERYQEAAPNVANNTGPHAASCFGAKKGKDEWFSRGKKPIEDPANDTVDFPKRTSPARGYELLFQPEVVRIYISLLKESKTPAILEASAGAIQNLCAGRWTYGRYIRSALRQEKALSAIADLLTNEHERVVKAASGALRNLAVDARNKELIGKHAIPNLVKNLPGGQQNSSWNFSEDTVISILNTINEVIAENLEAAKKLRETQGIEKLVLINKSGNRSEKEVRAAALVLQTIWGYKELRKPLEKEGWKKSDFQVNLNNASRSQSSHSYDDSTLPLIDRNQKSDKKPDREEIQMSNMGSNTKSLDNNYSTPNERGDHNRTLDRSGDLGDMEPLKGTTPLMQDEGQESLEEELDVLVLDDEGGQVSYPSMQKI
UniProt P14868: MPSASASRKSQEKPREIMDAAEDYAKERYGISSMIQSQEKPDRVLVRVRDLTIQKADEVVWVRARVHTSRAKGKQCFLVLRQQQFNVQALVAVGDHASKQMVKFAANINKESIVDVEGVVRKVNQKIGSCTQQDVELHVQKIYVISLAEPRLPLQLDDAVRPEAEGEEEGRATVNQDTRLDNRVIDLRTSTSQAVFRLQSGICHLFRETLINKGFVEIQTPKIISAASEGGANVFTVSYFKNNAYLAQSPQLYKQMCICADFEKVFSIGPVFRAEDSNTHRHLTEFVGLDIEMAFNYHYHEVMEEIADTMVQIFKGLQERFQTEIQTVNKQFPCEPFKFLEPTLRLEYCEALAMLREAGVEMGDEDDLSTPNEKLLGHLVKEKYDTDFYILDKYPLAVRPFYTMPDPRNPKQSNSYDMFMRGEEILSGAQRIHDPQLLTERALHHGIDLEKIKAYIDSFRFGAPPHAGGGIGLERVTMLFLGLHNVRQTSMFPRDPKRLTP
UniProt Q6UW02: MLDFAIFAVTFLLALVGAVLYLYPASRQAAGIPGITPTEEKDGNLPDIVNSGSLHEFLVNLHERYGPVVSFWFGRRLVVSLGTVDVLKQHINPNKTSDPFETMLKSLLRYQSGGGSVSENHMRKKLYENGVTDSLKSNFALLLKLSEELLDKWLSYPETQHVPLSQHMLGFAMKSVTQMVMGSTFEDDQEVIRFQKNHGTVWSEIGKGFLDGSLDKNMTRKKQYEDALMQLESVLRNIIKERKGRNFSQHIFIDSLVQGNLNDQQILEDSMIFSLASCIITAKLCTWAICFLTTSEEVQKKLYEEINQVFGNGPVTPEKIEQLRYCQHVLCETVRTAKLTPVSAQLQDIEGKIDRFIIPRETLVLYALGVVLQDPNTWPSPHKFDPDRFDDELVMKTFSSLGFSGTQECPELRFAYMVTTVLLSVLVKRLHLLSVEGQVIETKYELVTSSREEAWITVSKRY
UniProt P07711: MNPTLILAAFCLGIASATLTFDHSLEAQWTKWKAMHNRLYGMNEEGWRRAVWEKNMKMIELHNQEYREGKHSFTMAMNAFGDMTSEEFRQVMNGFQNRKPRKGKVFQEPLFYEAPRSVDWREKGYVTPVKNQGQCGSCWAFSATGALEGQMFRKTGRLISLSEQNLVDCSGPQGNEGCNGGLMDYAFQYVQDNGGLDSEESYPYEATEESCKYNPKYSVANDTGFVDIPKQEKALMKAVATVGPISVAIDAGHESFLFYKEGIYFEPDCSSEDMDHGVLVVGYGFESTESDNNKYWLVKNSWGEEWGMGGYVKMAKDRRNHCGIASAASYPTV

How the values were obtained:
Assay in all cases: log2 fold change, soluble protein after heating vs DMSO (PISA); higher = thermal stabilisation; K562 cells, 10 uM, 30 min; active = over 0.2 and 3.5 SD of the protein, either way, in both replicates (recomputed)
[1] = compound: Cc1ccc(NC(=O)c2ccc(CN3CC[C@H](N(C)C)C3)c(C(F)(F)F)c2)cc1Nc1nccc(-c2cncnc2)n1 [bafetinib]
In short: (§1)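 Thermal stability values are relative to control samples and come from duplicates. They are expressed as log2 fold changes. For measurement, K562 cells (2×10^6 cells/mL) received 10 μM compound for 30 min, and aliquots were heated for 3 min over 48°C-58°C, pooled, and extracted at 4°C in PBS with 0.5% NP-40. Soluble protein, the supernatant after 21,000xg for 90 min, was quantified by TMTpro 16plex LC-MS/MS with equalised channel sums.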

[2] = compound: Cc1cccc(CC(=O)N2CCc3c2ccc(-c2cn(C)c4ncnc(N)c24)c3F)n1
In short: as §1

[3] = compound: Cc1cn(-c2cc(NC(=O)c3ccc(C)c(Nc4nccc(-c5cccnc5)n4)c3)cc(C(F)(F)F)c2)cn1 [nilotinib]
In short: as §1

[4] = compound: Cc1nc(Nc2n[nH]c3c2CN(C(=O)N[C@H](CN(C)C)c2ccccc2)C3(C)C)c2sccc2n1
In short: as §1

[5] = compound: Cc1nc(Nc2ncc(C(=O)Nc3c(C)cccc3Cl)s2)cc(N2CCN(CCO)CC2)n1 [dasatinib]
In short: as §1

[6] = compound: Cc1ncc(-c2ccnc(Nc3ccc(S(C)(=O)=O)cc3)n2)n1C(C)C
In short: as §1

[7] = compound: Cn1cc(-c2ccc3c(c2)CCN3C(=O)Cc2cccc(C(F)(F)F)c2)c2c(N)ncnc21
In short: as §1

[8] = compound: Cn1cc(-c2ccc3nnc(C(F)(F)c4ccc5ncccc5c4)n3n2)cn1
In short: as §1

[9] = compound: Cn1cncc1[C@@](N)(c1ccc(Cl)cc1)c1ccc2c(c1)c(-c1cccc(Cl)c1)cc(=O)n2C [tipifarnib]
In short: as §1

[10] = compound: FC(F)(F)c1ccc(/C=C/c2nc(COc3ccc(CCCCn4ccnn4)cc3)co2)cc1 [mubritinib]
In short: as §1

| Target | log2 fold change [1] | log2 fold change [2] | log2 fold change [3] | log2 fold change [4] | log2 fold change [5] | log2 fold change [6] | log2 fold change [7] | log2 fold change [8] | log2 fold change [9] | log2 fold change [10] |
| --- | --- | --- | --- | --- | --- | --- | --- | --- | --- | --- |
| CUL5 (UniProt Q93034) | inactive: -0.032 | inactive: -0.003 | inactive: -0.009 | inactive: -0.006 | inactive: 0.028 | inactive: 0.012 | inactive: 0.044 | inactive: 0.031 | inactive: -0.02 | inactive: 0.033 |
| CYB5R3 isoform 3 (UniProt P00387) | inactive: -0.047 | inactive: -0.038 | inactive: -0.013 | inactive: 0.001 | inactive: 0.019 | inactive: -0.028 | inactive: 0.008 | inactive: 0.017 | inactive: -0.011 | inactive: 0.031 |
| DCTD isoform 2 (UniProt P32321) | inactive: -0.057 | inactive: -0.012 | inactive: -0.02 | inactive: 0.007 | inactive: 0.002 | inactive: 0.002 | inactive: 0.029 | inactive: -0.016 | inactive: -0.032 | inactive: 0.058 |
| CUL1 (UniProt Q13616) | inactive: -0.025 | inactive: 0.005 | inactive: 0.014 | inactive: 0.01 | inactive: 0.043 | inactive: 0.006 | inactive: 0.022 | inactive: 0.007 | inactive: -0.014 | inactive: 0.032 |
| DBN1 isoform 3 (UniProt Q16643) | inactive: -0.106 | inactive: 0.032 | inactive: -0.05 | inactive: -0.043 | active: 0.264 | inactive: -0.041 | inactive: -0.22 | inactive: -0.069 | inactive: 0.086 | inactive: 0 |
| CUL4B (UniProt K4DI93) | inactive: -0.053 | inactive: 0.01 | inactive: -0.001 | inactive: 0.012 | inactive: -0.008 | inactive: 0.001 | inactive: 0.048 | inactive: -0.005 | inactive: -0.012 | inactive: 0.011 |
| CSTB (UniProt P04080) | inactive: 0.052 | inactive: 0.076 | inactive: 0.029 | inactive: 0.019 | inactive: 0.042 | inactive: 0.013 | inactive: 0.024 | inactive: -0.025 | inactive: -0.137 | inactive: 0.004 |
| DCTN6 (UniProt O00399) | inactive: -0.056 | inactive: -0.041 | inactive: 0.019 | inactive: -0.029 | inactive: 0.033 | inactive: 0.016 | inactive: 0.038 | inactive: -0.088 | inactive: -0.047 | inactive: 0.049 |
| DCTPP1 (UniProt Q9H773) | inactive: -0.053 | inactive: 0.105 | inactive: 0.008 | inactive: -0.013 | inactive: 0.068 | inactive: -0.025 | inactive: 0.073 | inactive: 0.029 | inactive: 0.074 | inactive: 0.047 |
| CTPS2 (UniProt Q9NRF8) | inactive: -0.012 | inactive: -0.013 | inactive: -0.009 | inactive: 0.007 | inactive: 0.03 | inactive: -0.01 | inactive: -0.006 | inactive: 0.006 | inactive: -0.016 | inactive: 0.059 |
| CZIB (UniProt Q9NWV4) | inactive: -0.075 | inactive: -0.026 | inactive: 0.012 | inactive: -0.012 | inactive: -0.016 | inactive: 0.018 | inactive: -0.012 | inactive: 0.023 | inactive: 0.017 | inactive: 0.019 |
| CSTF1 (UniProt Q05048) | inactive: -0.03 | inactive: -0.029 | inactive: -0.031 | inactive: 0.071 | inactive: -0.002 | inactive: 0.055 | inactive: 0.066 | inactive: 0 | inactive: -0.032 | inactive: 0 |
| CUEDC2 (UniProt Q9H467) | inactive: -0.072 | inactive: 0.003 | inactive: -0.006 | inactive: -0.045 | inactive: 0.049 | inactive: -0.055 | inactive: 0.02 | inactive: -0.009 | inactive: 0.028 | inactive: 0.042 |
| DBT (UniProt P11182) | inactive: 0.02 | inactive: -0.037 | inactive: 0.036 | inactive: -0.014 | inactive: -0.002 | inactive: -0.033 | inactive: -0.026 | inactive: -0.03 | inactive: 0.011 | active: -0.207 |
| CTBS (UniProt Q01459) | active: -0.483 | inactive: -0.069 | inactive: 0.016 | inactive: -0.007 | inactive: -0.006 | inactive: -0.077 | inactive: -0.093 | inactive: 0.162 | inactive: 0.091 | inactive: 0.025 |
| CSRP1 (UniProt P21291) | inactive: -0.001 | inactive: 0.013 | inactive: 0.007 | inactive: -0.014 | inactive: 0.105 | inactive: 0.008 | inactive: 0.044 | inactive: -0.007 | inactive: 0.011 | inactive: 0.016 |
| CTBP2 isoform 2 (UniProt P56545) | inactive: -0.011 | inactive: -0.032 | inactive: -0.028 | inactive: 0.007 | inactive: 0.023 | inactive: -0.029 | inactive: 0.054 | inactive: 0.012 | inactive: 0.062 | inactive: 0.032 |
| CST3 (UniProt P01034) | inactive: 0.034 | inactive: -0.04 | inactive: 0.142 | inactive: -0.001 | inactive: 0.148 | inactive: 0.014 | inactive: 0.007 | inactive: -0.091 | inactive: 0.077 | inactive: -0.037 |
| CWC25 (UniProt Q9NXE8) | inactive: 0.401 | inactive: 0.111 | inactive: 0.062 | inactive: -0.135 | – | inactive: 0.113 | inactive: -0.301 | inactive: -0.092 | – | inactive: -0.103 |
| DCTN2 isoform 2 (UniProt Q13561) | inactive: 0.017 | inactive: -0.007 | inactive: -0.012 | inactive: -0.026 | inactive: -0.089 | inactive: 0.026 | inactive: -0.012 | inactive: 0.003 | inactive: -0.066 | inactive: 0.018 |
| CTNND1 (UniProt O60716) | inactive: 0.118 | inactive: -0.076 | – | – | inactive: 0.017 | – | inactive: -0.243 | inactive: -0.038 | inactive: 0.052 | inactive: -0.203 |
| CSTF2T (UniProt Q9H0L4) | inactive: -0.019 | inactive: -0.025 | inactive: -0.016 | inactive: 0.086 | inactive: 0.011 | inactive: 0.062 | inactive: -0.018 | inactive: 0.011 | inactive: -0.018 | inactive: 0.03 |
| CTSV (UniProt O60911) | active: -0.696 | inactive: -0.24 | inactive: 0.036 | inactive: 0.142 | inactive: 0.061 | inactive: -0.056 | inactive: 0.016 | inactive: -0.002 | inactive: 0.026 | inactive: -0.009 |
| DARS (UniProt P14868) | inactive: -0.023 | inactive: 0 | inactive: -0.015 | inactive: 0.038 | inactive: 0.055 | inactive: 0.002 | inactive: -0.035 | inactive: -0.032 | inactive: 0.015 | inactive: 0.006 |
| CWC27 (UniProt Q6UX04) | inactive: -0.147 | inactive: -0.059 | inactive: -0.058 | inactive: -0.094 | inactive: -0.087 | inactive: 0.132 | inactive: 0.056 | inactive: 0.022 | inactive: -0.146 | inactive: 0.109 |
| CYP20A1 (UniProt Q6UW02) | inactive: 0.004 | inactive: -0.041 | inactive: -0.042 | inactive: -0.046 | inactive: -0.081 | inactive: 0.01 | inactive: 0.033 | inactive: -0.039 | inactive: 0.013 | inactive: 0.029 |
| DBNL isoform 3 (UniProt Q9UJU6) | inactive: 0.048 | inactive: -0.007 | inactive: -0.05 | inactive: -0.071 | inactive: -0.098 | inactive: -0.013 | inactive: -0.003 | inactive: 0.057 | inactive: -0.096 | inactive: 0.032 |
| CTSL (UniProt P07711) | inactive: -0.261 | inactive: -0.046 | inactive: 0.041 | inactive: 0.103 | inactive: 0.14 | inactive: 0.004 | inactive: 0.013 | inactive: 0.045 | inactive: 0.145 | inactive: -0.006 |

Single records, as listed above. Order of values: log2 fold change [1]	log2 fold change [2]	log2 fold change [3]	log2 fold change [4]	log2 fold change [5]	log2 fold change [6]	log2 fold change [7]	log2 fold change [8]	log2 fold change [9]	log2 fold change [10]
CTBS (UniProt Q01459) in the list: active: -0.483	inactive: -0.069	inactive: 0.016	inactive: -0.007	inactive: -0.006	inactive: -0.077	inactive: -0.093	inactive: 0.162	inactive: 0.091	inactive: 0.025
DCTD isoform 2 (UniProt P32321) in the list: inactive: -0.057	inactive: -0.012	inactive: -0.02	inactive: 0.007	inactive: 0.002	inactive: 0.002	inactive: 0.029	inactive: -0.016	inactive: -0.032	inactive: 0.058
